According to publication PMC6695453, “Peptide translocation by the lysosomal ABC transporter TAPL is regulated by coupling efficiency and activation energy” (Scientific Reports, 2019):
Results are given in words; binding and its absence hold for the method and conditions named. Some results given as binding are weak or reduced against the parent protein; the word gives no strength. For some assays here: Where a sequence is shown, tags or fusion partners need not be part of it. Values belong to the molecule of their own block, whether it stands above or below them.

Columns and labels:
[1] = target: T1, Atto-655 labeled 9-mer peptide RRYC^Atto-655KSTEL; assay: MST; competition: 100 nM 9-mer^Atto-655 peptide and 10 µM TAPL with unlabeled competitor peptide (18-mer titrated; 9-mer at 4 mM); 22 °C; Ki fitted considering competitor depletion; both purified
T1 sequence (peptide, Atto-655 (maleimide) on the single cysteine (RRYC^Atto-655KSTEL)): RRYCKSTEL

[2] = target: T2, coreTAPL (core complex of the transporter associated with antigen processing-like, ABCB9) fused C-terminally to mVenus (human) (UniProt Q9NP78); assay: as above
T2 sequence: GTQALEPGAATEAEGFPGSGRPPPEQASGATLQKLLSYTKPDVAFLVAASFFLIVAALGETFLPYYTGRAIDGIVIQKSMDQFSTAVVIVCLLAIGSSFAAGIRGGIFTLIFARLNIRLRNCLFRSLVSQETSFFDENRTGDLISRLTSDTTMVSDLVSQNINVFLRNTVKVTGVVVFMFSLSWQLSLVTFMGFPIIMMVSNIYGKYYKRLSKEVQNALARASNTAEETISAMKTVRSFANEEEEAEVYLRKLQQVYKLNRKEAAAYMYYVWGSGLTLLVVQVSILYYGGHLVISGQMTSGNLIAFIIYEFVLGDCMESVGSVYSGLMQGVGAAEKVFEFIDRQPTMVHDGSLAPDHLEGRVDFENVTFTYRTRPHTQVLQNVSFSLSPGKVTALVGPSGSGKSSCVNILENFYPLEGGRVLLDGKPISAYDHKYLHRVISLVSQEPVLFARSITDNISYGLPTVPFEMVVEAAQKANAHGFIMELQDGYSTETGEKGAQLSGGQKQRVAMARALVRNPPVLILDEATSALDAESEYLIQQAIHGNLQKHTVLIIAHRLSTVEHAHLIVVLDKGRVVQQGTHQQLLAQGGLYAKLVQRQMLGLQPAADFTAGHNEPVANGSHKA

Molecule: coreTAPL (core complex of the transporter associated with antigen processing-like, ABCB9) fused C-terminally to mVenus (from UniProt Q9NP78 143-766) (domain or fragment)
binding [1]: binds

binding [2]: binds
B1: 9-mer peptide … (peptide)
peptide: RRYQKSTEL
